Experimental data reported in US5659024.
For some assays here: A weaker result is weaker than the reference pair of the same experiment. For some assays here: Where cells or extracts were used, other partners may take part. For at least one entry, the source does not settle the construct or the ends of the probe.

Columns and labels:
p53 wild-type [1] = biological target: p53 wild-type (UniProt P04637); assay: EMSA; conditions: label: 32P
p53 wild-type [2] = biological target: p53 wild-type (UniProt P04637); assay: activity in cells; conditions: protein in cells, protein details: pCMV-p53wt
[3] = CAT activation in H358, variant of bax p53-RE-U (-485 to -449), only the site is given

GTAGACTGATATTAACAATACTTACTAATAATAACGTGCCTCATGAAATAAAGATCCGAAAGGAATTGGAATAAAAATTTCCTGCGTCTCATGCCAAGAGGGAAACACCAGAATCAAGTGTTCCGCGTGATTGAAGACACCCCCTCGTCCAAGAATGCAAAGCACATCCAATAAAATAGCTGGATTATAA (double strand) [bcl-2 p53-RE-D (-273 to -84)]
binding result (p53 wild-type [1]; poly dI-dC, room temperature, supershifted by anti-p53 antibody, protein in a lysate after overexpression): binds | activity on this sequence (p53 wild-type [2]; CAT repression in H358 cells, SV40 promotor): active

AGACAAGCCTGGGCGTGGGCTATATT (double strand) [bax promotor -474 to -449]
activity on this sequence (p53 wild-type [2]; [3]): less active

TCACAAGTTAGAGACAAGCCT (double strand) [bax promotor -485 to -465]
activity on this sequence (p53 wild-type [2]; [3]): less active

GGGAATTCCAGACTGCAGTGAGCCATGATTGGGCCACTGCACTCCAGCCTGGGCAACACAGTGAGACCCTGTCTCAAAAAAAAAAAAAAAAAAAAAAAAAAAAACAGGAAAAAACAAACAAACAGAAAAGCAGGCCTGGCGCGGTAGCTCATGCCTGTAATCCCAGCGCTTTGGAAGGCTGAGACGGGGTTATCTCTTGGGCTCACAAGTTAGAGACAAGCCTGGGCGTGGGCTATATTGCTAGATCCAGGTCTCTGCAAAAAACAAAACCACTCAGTTTTTAGTCATCTATAACGTCCTGCCTGGAAGCATGCTATTTTGGGCCTCTGAGCTTTTGCACTTGCTAATTCCTTCTGCGCTGGGGAGAGCT (double strand) [bax promotor -687 to -318]
activity on this sequence (p53 wild-type [2]; CAT activation in H358, about 30 fold in Saos-2): active

TCACAAGTTAGAGACAAGCCTGGGCGTGGGCTATATT (double strand) [bax p53-RE-U (-485 to -449)]
binding result (p53 wild-type [1]; complex seen only with anti-p53 antibodies DO-1 and P421, salmon sperm DNA, 25 C, protein translated in vitro, protein details: reticulocyte lysate, from pCMV-p53wt): binds | activity on this sequence (p53 wild-type [2]; CAT activation in H358, only the site is given): active

TGAGACGGGGTTATCTCTTGGGCTCACAAGTTAGAGACAAGCCTGGGCGTGGGCTATATTGCTAGATCCAGGTCTCTGCAAAAAACAAAACCAC (double strand) [bax promotor -508 to -415]
activity on this sequence (p53 wild-type [2]; CAT activation in H358): active
